Article PMC9692045
No constants are given. Whether binding was seen depends on the method and setting. In cells and extracts the contact can be indirect. Some results given as binding are weak or reduced against the parent protein; the word gives no strength. For part of these data: Tags and fused reporters may be left off the sequences shown.

Sequences of proteins named here, by UniProt entry; tags and fusion partners are left off.
UniProt Q61221: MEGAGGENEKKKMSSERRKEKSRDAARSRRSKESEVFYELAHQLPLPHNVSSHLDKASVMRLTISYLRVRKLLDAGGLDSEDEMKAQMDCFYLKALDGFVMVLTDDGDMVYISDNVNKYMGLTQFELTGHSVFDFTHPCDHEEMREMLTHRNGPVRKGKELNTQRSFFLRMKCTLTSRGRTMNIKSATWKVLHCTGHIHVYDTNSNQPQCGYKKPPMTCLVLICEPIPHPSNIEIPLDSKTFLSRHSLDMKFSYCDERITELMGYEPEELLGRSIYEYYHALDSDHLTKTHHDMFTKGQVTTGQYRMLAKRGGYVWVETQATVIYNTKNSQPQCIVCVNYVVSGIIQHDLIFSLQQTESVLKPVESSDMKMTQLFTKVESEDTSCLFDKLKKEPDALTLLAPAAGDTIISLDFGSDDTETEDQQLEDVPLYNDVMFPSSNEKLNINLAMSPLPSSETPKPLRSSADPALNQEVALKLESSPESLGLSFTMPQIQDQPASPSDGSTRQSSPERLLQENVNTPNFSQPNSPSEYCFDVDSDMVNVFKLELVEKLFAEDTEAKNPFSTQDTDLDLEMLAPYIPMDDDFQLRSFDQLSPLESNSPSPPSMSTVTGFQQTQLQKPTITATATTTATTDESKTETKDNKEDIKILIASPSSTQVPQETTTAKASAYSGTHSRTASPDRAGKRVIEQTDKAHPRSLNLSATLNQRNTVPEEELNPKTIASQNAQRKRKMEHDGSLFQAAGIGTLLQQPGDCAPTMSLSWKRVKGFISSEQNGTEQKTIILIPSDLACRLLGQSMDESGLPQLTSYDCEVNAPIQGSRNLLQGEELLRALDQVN
UniProt Q16665: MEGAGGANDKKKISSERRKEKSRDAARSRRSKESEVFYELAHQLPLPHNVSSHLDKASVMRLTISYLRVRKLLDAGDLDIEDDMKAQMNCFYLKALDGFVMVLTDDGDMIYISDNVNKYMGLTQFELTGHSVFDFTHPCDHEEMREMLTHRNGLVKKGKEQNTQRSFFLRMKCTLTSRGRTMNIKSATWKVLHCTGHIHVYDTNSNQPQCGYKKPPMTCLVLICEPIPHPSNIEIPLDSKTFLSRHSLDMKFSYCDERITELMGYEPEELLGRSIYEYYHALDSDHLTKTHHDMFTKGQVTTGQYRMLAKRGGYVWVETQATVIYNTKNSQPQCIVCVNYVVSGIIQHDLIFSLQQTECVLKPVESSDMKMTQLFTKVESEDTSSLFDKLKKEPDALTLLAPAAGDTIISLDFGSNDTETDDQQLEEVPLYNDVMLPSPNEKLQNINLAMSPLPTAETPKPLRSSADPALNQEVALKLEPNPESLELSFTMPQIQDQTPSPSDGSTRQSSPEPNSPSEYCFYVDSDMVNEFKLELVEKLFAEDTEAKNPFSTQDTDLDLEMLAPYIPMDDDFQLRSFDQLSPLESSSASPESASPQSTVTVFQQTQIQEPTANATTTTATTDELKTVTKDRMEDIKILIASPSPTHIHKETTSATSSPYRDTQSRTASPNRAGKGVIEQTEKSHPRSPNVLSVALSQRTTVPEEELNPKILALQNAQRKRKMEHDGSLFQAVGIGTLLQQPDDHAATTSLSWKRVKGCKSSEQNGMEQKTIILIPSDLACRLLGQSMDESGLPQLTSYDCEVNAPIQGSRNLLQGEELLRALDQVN

What was measured:
HA-SMYD3 [1] = molecular target: T1, HA-SMYD3 (UniProt Q9H7B4); experiment: co-IP; HEK293T cells co-transfected with the plasmids for 24 h; anti-HA antibody-conjugated agarose beads for immunoprecipitation, immunoblotting; normoxia stated for Fig. 5C
T1 sequence: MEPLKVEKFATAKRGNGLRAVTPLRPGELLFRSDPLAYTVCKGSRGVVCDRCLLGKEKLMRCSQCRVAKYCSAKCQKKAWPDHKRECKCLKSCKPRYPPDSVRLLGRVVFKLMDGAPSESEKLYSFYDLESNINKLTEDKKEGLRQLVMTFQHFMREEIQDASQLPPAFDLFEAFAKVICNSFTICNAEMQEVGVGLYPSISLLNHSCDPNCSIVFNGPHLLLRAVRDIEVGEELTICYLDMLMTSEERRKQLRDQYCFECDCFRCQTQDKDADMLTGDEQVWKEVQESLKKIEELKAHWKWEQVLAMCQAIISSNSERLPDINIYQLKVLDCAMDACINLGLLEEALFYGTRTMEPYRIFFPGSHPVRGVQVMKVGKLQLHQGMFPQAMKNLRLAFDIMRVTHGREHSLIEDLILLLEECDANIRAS

HA-SMYD3-F183A [2] = molecular target: T2, HA-SMYD3-F183A (UniProt Q9H7B4); experiment: as above
T2 sequence: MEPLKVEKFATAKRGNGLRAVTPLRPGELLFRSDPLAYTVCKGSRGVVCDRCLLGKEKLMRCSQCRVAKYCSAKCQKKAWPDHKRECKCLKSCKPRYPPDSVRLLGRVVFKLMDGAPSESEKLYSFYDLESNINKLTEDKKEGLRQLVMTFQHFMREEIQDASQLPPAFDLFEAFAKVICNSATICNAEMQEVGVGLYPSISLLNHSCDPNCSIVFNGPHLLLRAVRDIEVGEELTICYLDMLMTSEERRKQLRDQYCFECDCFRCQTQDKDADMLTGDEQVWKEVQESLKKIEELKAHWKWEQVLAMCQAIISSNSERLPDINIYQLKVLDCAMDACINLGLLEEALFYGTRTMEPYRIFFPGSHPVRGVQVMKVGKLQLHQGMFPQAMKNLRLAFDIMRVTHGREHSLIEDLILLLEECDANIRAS

HA-SMYD3 [3] = molecular target: T1, HA-SMYD3; experiment: co-IP; semiendogenous: ectopic HA-tagged SMYD3 with endogenous HIF1α, cells under hypoxia; cell line and precipitating antibody not shown
HA-SMYD3-F183A [4] = molecular target: T2, HA-SMYD3-F183A; experiment: as above
[5] = molecular target: T3, endogenous SMYD3 in HEK293T cells (human (endogenous in HEK293T)) (UniProt Q9H7B4); experiment: co-IP; endogenous proteins in HEK293T cells under hypoxia; precipitating antibody not shown
T3 sequence: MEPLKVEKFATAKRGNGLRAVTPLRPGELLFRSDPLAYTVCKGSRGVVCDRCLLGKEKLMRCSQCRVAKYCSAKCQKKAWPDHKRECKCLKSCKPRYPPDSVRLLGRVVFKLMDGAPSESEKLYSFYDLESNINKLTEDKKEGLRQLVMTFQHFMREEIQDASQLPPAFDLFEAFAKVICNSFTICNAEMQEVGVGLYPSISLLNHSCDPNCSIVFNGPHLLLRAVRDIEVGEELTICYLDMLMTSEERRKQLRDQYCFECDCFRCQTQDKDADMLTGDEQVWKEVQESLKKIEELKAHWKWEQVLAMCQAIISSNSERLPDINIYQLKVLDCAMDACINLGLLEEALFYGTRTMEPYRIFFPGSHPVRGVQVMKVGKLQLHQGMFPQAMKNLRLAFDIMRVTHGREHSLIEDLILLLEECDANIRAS

[6] = molecular target: endogenous Hif1α in MEF cells (mouse (endogenous in MEF)) (UniProt Q61221); experiment: co-IP; endogenous proteins in Smyd3+/+ MEF cells (Smyd3-/- MEF cells as control) under hypoxia for 4 h; anti-HIF1α antibody for immunoprecipitation

## Myc-HIF1α (from UniProt Q16665 1-826)
HA-SMYD3 [1]
  binding: binds
HA-SMYD3-F183A [2]
  binding: binds

## endogenous HIF1α (semiendogenous co-immunoprecipitation, under hypoxia) (from UniProt Q16665 1-826)
HA-SMYD3 [3]
  binding: binds
HA-SMYD3-F183A [4]
  binding: binds

## endogenous HIF1α in HEK293T cells (from UniProt Q16665 1-826)
[5]
  binding: binds

B1: endogenous Smyd3 in MEF cells (protein, UniProt Q9CWR2 1-428)
chain: MEALKVEKFTTANRGNGLRAVAPLRPGELLFRSDPLAYTVCKGSRGVVCDRCLLGKEKLMRCSQCRIAKYCSAKCQKKAWPDHRRECSCLKSCKPRYPPDSVRLLGRVIVKLMDEKPSESEKLYSFYDLESNISKLTEDKKEGLRQLAMTFQHFMREEIQDASQLPPSFDLFEAFAKVICNSFTICNAEMQEVGVGLYPSMSLLNHSCDPNCSIVFNGPHLLLRAVREIEAGEELTICYLDMLMTSEERRKQLRDQYCFECDCIRCQTQDKDADMLTGDEQIWKEVQESLKKIEELKAHWKWEQVLALCQAIINSNSNRLPDINIYQLKVLDCAMDACINLGMLEEALFYAMRTMEPYRIFFPGSHPVRGVQVMKVGKLQLHQGMFPQAMKNLRLAFDIMKVTHGREHSLIEDLILLLEECDANIRAS
[6]
  binding: binds
